Reference: article PMC12040169 (PLOS Biology, 2025)
The other results are listed elsewhere or left out.

system: T1, CTL2-GFP (C. trachomatis L2/434/Bu, GFP-expressing); set-up: species or system HeLa; Intracellular C. trachomatis growth in HeLa cells, bulk GFP fluorescence relative to DMSO; conditions: bulk GFP, single well; 28.5 h, 10 µM; inhibitor
T1 construct: L2/434/Bu, GFP-expressing

Row | Compound | % of control remaining
1 | CCc1nc2ccc(C(=O)N3CCCCC3)cn2c1N(CC)Cc1ccc2c(c1)OCCO2 [CBK146903] | 109.973%
2 | CCOC(=O)/C(C#N)=C(\O)c1ccc(N2C(=O)c3ccc(C(=O)O)cc3C2=O)cc1 [CBK262683] | 131.626%
3 | C=CCNC(=O)N1CC[C@H]2CC(=O)N(Cc3ccc4c(c3)OCO4)CC[C@H]2C1 [CBK288794] | 106.678%
4 | CN(C)CCN(C)C1CCN(Cc2ccccc2)CC1 [CBK261930] | 104.684%
5 | O=C(O)CCn1c(=O)cc(C(F)F)c2cn(Cc3ccccc3)nc21 [CBK286881] | 121.378%
6 | O=C(NCc1ccccc1OC1CCNC1)c1ccccn1 (stereo not drawn) [CBK029464T] | 87.4487%
7 | Cc1nn(CCC(=O)NC(C)(C)CN2CCCC(C)C2)c(C)c1C (stereo not drawn) [CBK282676] | 103.539%
8 | CC(C)[C@@H](Cn1nc(-c2cccs2)ccc1=O)NC(=O)C1CC1 [CBK284297] | 119.05%
9 | Cc1cc(-c2nnc(SCC(=O)N3CCCc4ccccc43)o2)no1 [CBK268828] | 138.647%
10 | COc1cc2c(cc1OC)CN(Cc1nc3ccccc3[nH]1)CC2 [CBK126390] | 108.928%
11 | Cc1cc(Cl)ccc1NC(=S)NCCc1ccc(S(N)(=O)=O)cc1 [CBK264888] | 119.309%
12 | O=S(=O)(Nc1cc(NC2CCNC2)c2occc2c1)c1ccccc1 (stereo not drawn) [CBK066943C] | 71.9275%
13 | Cc1ccc(CNC(=O)OCc2cccnc2C)o1 [CBK200131] | 42.1286%
14 | CC(C)C[C@@H]1NC(=O)C2(C/C=C/C[C@@H]3COCC[C@@H]3NC1=O)CCN(C(=O)[C@H](CO)NC(=O)OCc1ccccc1)CC2 [CBK292191] | 171.011%
15 | Oc1cc2cccnc2nc1-c1cccc(C(F)(F)F)c1 [CBK073704] | 104.743%
16 | OC(COc1ccc(Br)cc1)CN1CCCN(c2nc3ccc(Cl)cc3s2)CC1 (stereo not drawn) [CBK074643] | 16.3843%
17 | CCOc1cccc(NC(=O)/C(C#N)=C\c2cc(OC)c(O)cc2Br)c1 [CBK263189] | 100%
18 | c1cncc(C2N3CCC4(CC3)c3[nH]c5ccccc5c3CCN24)c1 (stereo not drawn) [CBK284430] | 103.174%
19 | COc1ccc(C2=NN(c3ccc([N+](=O)[O-])cc3)C(=O)/C2=C/NCc2ccccn2)cc1 [CBK265276] | 125.219%
20 | C[C@@H](Nc1cncc(-c2cccs2)n1)c1ccccc1 [CBK065711] | 69.1395%
21 | CCN(CC)C(=O)c1ccc2[nH]ccc2c1 [CBK149072] | 104.96%
22 | CC(C)(CN(Cc1ccccc1)C(=O)/C=C/c1ccccc1)NC(=O)OC(C)(C)C [CBK003266] | 57.5996%
23 | COc1ccc(NC(=S)N2CCN(C/C=C/c3ccccc3)CC2)cc1OC [CBK266891] | 143.768%
24 | CCn1cncc1CN1CC2CCCC(O)(c3ccc(F)cc3)C2C1 (stereo not drawn) [CBK282119] | 164.785%
25 | CCC(NC(=O)C1(Cn2ccnc2)CC1)c1ncccc1C (stereo not drawn) [CBK307046] | 113.87%
26 | CN1CCCN(c2nccnc2-c2cccc(O)c2)CC1 [CBK088820] | 82.6506%

Row | Compound | % of control remaining
27 | Cc1ccccc1Sc1ncccc1C(F)(F)F [CBK115231] | 102.799%
28 | O=C(CCCn1cccn1)N1CCOC(c2ccc(Cl)c(Cl)c2)C1 (stereo not drawn) [CBK304640] | 113.533%
29 | C=CCn1cc(CN2CCc3c(nc(C)[nH]c3=O)C2)c2ccccc21 [CBK283992] | 91.2968%
30 | Cc1ccc(-c2csc3ncn(Cc4ccccc4C)c(=O)c23)cc1C [CBK099921] | 96.4227%
31 | O=C(NCCCNC(=O)c1ccccn1)c1ccc(Cl)cc1 [CBK269193] | 178%
32 | Cc1cc(C)cc(NC(=O)CSc2ncnc3c2oc2ccccc23)c1 [CBK287394] | 162.344%
33 | CC(NC(=O)CSc1nnc(-c2ccc(Cl)cc2)n1-c1ccccc1)c1ccccc1 (stereo not drawn) [CBK264993] | 118.265%
34 | Cc1nc2ccc(C(=O)NCC3CCCN(C(C)C)C3)cc2[nH]1 (stereo not drawn) [CBK282475] | 145.129%
35 | Cc1cc(=O)oc2cc(NC(=S)NNC(=O)C3CCN(Cc4ccc(F)cc4Cl)CC3)ccc12 [CBK266953] | 146.084%
36 | CCOC(=O)c1c(NC(=S)NC(=O)c2cccc(Cl)c2)sc2c1CCCC2 [CBK264045] | 100%
37 | c1ccc(COc2ccccc2-c2cc(NCCc3ccccn3)ncn2)cc1 [CBK037826] | 185.94%
38 | Nc1ncc(-c2ccncc2)nc1-c1cccc2c1oc1ccccc12 [CBK063889] | 235.987%
39 | CN(C)CCCNc1nc(-c2cccc(Cl)c2)nc2ccccc12 [CBK267284C] | 137.3%
40 | COC(=O)[C@@H]1Cc2ncn(Cc3ccc(OC)cc3)c2CN1C(=O)c1ccc(C#N)cc1 [CBK288982] | 125.675%
41 | O=C(/C=C/c1cccnc1)Nc1ccccc1N1CCNCC1 [CBK034136T] | 82.7221%
42 | O=C(NCCCC1CCOC1)c1[nH]nc2c1CCCCC2 (stereo not drawn) [CBK283154] | 119.305%
43 | Cc1cc(-c2ccc(=O)n(CCNC(=O)c3cccs3)n2)c(C)o1 [CBK284461] | 140.249%
44 | CC(C)NC(=O)c1cc([C@H]2CC[C@H](CNC(=O)Cn3cccn3)CC2)nc2ccccc12 [CBK285859] | 96.7249%
45 | CC(NC(=O)c1cccc2ccccc12)c1ccc2ccccc2c1 (stereo not drawn) [CBK267646] | 128.137%
46 | COc1cc(-c2cc(N(C)CCN(C)C)n3nccc3n2)cc(OC)c1OC [CBK037181] | 87.8455%
47 | Cc1ccc(Cl)cc1NC(=O)c1cnc2scc(C)n2c1=O [CBK287464] | 124.307%
48 | CC(C)(C)c1[nH]c2ncccc2c1CN1CCCC(CO)C1 (stereo not drawn) [CBK285342] | 120.452%
49 | CN(C)CCNc1nc(-c2cncnc2)cnc1N [CBK063661] | 186.659%
50 | CN(CC(=O)O/N=C(\N)c1cccnc1)S(=O)(=O)c1ccccc1 [CBK267684] | 136.843%
51 | COc1cccc(C(NC(=O)C2COc3c(cccc3OC)C2)c2ccccc2)c1 (stereo not drawn) [CBK285736] | 106.786%
52 | O=C(CSc1nc(Nc2ccccc2)nc(N2CCOCC2)n1)Nc1ccc2c(c1)OCO2 [CBK268320] | 166.367%

Row | Compound | % of control remaining
53 | CCN(CC(=O)Nc1c(F)cccc1F)S(=O)(=O)c1cccc(C#N)c1 [CBK306197] | 110.48%
54 | COc1ccc(C2(NCc3c(C)nc4sccn34)CC2)cc1 [CBK282835] | 118.179%
55 | O=C(CN1C(=O)S/C(=C\c2ccc(OCc3ccccc3)cc2)C1=O)c1ccccc1 [CBK264636] | 119.788%
56 | OC(CN1CCN(Cc2ccc3c(c2)OCO3)CC1)c1ccccc1 (stereo not drawn) [CBK074759] | 145.855%
57 | CN1CCC(N(C)C2CCN(Cc3ccccc3)CC2)CC1 [CBK261925] | 117.637%
58 | Cc1ccc(S(=O)(=O)CCOc2nc3c(C(F)(F)F)cc(C4CC4)nc3o2)cc1 [CBK269267] | 113.827%
59 | CCOc1ccc(-c2cnc(SCC(=O)O)nc2N)cc1 [CBK269928] | 86.9209%
60 | Cc1cccc(OCCn2cncc2-c2cn(C)nc2C)c1C [CBK281458] | 68.5042%
61 | Cc1nc2ccc(C(=O)NC(c3ccccc3)c3cccnc3)cc2[nH]1 (stereo not drawn) [CBK283259] | 103.121%
62 | C/C(=N\N=C1\N=C(O)C(CC(=O)NCc2ccccc2)S1)c1ccco1 (stereo not drawn) [CBK263698] | 119.636%
63 | CC(C)(O)C#Cc1ccc(C(=O)N2CCN(Cc3ccccc3)CC2)cc1 [CBK263100] | 100%
64 | COc1cc(/C=N/c2ccc3oc(-c4cccc(I)c4)nc3c2)ccc1OC(=O)c1ccc(Cl)cc1Cl [CBK261239] | 104.991%
65 | CCOc1ccsc1C(=O)N1CCN(CC)CC1 [CBK200250] | 157.58%
66 | Cc1c(C(=O)Nc2cccc(-c3nc4ccccc4s3)c2)sc2nc[nH]c(=O)c12 [CBK285825] | 125.971%
67 | O=C(O)c1cc(S(=O)(=O)N2CCCCC2)c(Cl)cc1N1CCCCC1 [CBK263408] | 127.034%
68 | Cc1ccc(S(=O)(=O)N2C[C@H]3C[C@H](NC(=O)C(C)C)[C@H]3C2)cc1 [CBK285317] | 144.626%
69 | Cc1ccc2nsnc2c1NC(=O)COc1ccccc1[N+](=O)[O-] [CBK263779] | 126.395%
70 | CCC1CCCCN1C(=O)c1ccc(C)s1 (stereo not drawn) [CBK084526] | 141.279%
71 | CN(C)CCN(C)c1nc(-c2ccc(C(C)(C)C)cc2)cn2ccnc12 [CBK066477] | 188.838%
72 | N#Cc1ccsc1NC(=O)CSc1nc[nH]n1 [CBK267221] | 119.783%
73 | COCC1CCCN1C(=O)c1cnn2c(C)c(Cc3ccc(OC)cc3)c(C)nc12 (stereo not drawn) [CBK162190] | 120.929%
74 | Cc1cc(C(=O)NC2CCCc3c2cnn3-c2ccc(F)cc2)on1 (stereo not drawn) [CBK282310] | 71.1096%
75 | CN1C(=O)COc2ccccc2C/C=C/C[C@@H]2[C@H]1CCCN2S(=O)(=O)c1cccnc1 [CBK292067] | 109.284%
76 | Cc1cc(C(=O)Nc2c(C)noc2C)n[nH]1 [CBK200395] | 110.535%
77 | Cc1ccc(NC(=O)OCC(F)(F)C(F)F)cc1Cl [CBK026548] | 130.989%
78 | COC(=O)c1sc2[nH]c(CN(C)Cc3ccco3)nc(=O)c2c1C [CBK306047] | 114.026%

From no. 73 as far as 75, as listed above:
Row | Compound | % of control remaining
73 | COCC1CCCN1C(=O)c1cnn2c(C)c(Cc3ccc(OC)cc3)c(C)nc12 (stereo not drawn) [CBK162190] | 120.929%
74 | Cc1cc(C(=O)NC2CCCc3c2cnn3-c2ccc(F)cc2)on1 (stereo not drawn) [CBK282310] | 71.1096%
75 | CN1C(=O)COc2ccccc2C/C=C/C[C@@H]2[C@H]1CCCN2S(=O)(=O)c1cccnc1 [CBK292067] | 109.284%
